Source: the supplement of paper PMC12067093, “Discovery and optimisation of a covalent ligand for TRIM25 and its application to targeted protein ubiquitination” (Chemical Science, 2025)
Some of the results follow.

Compound: Cc1cc(ccc1-c1ccccc1)C(=O)N1CCCN(CC1)C(=O)CCl [compound 10]
Experiment: probe-labelled cysteine peptide fold change vs DMSO (competition) (log2 fold change); higher = less target engagement (more negative = stronger competition)
Settings: THP-1, incubation time: 4 h
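Also: competitive profiling in live THP-1 cells: cysteine peptides tagged with an iodoacetamide desthiobiotin (IA-DTB) probe, intensity after compound treatment relative to DMSO-treated cells.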

Row | Target | probe-labelled cysteine peptide fold change (10 µM) | probe-labelled cysteine peptide fold change (50 µM)
1 | IMPA2_O14732_90_CVLTHSPTWIIDPIDGTCNFVHR (UniProt O14732) | 0.0244 | 0.0597
2 | IGF2R_P11717_2096_TASSVIELTCTK (UniProt P11717) | -0.0404 | -0.124
3 | HUWE1_Q7Z6Z7_4211_EYVHLVCQMR (UniProt Q7Z6Z7) | -0.0536 | 0.0673
4 | IKBKG_Q9Y6K9_95_EFLMCK (UniProt Q9Y6K9) | -0.0371 | -0.0967
5 | IGF2R_P11717_228_ACPPGTAACLVR (UniProt P11717) | -0.0106 | 0.104
6 | IL18_Q14116_10_AAEPVEDNCINFVAMK (UniProt Q14116) | 0.222 | 0.39
7 | ILKAP_Q9H0C8_135_EEMQDAHVILNDITEECRPPSSLITR (UniProt Q9H0C8) | -0.29 | 0.284
8 | IMPA2_O14732_136_QELEFGVIYHCTEER (UniProt O14732) | 0.309 | 0.224
9 | IGF2R_P11717_893_IHLVCSR (UniProt P11717) | -0.249 | -0.0882
10 | IFI16_Q16666_637_IIAIANYVCR (UniProt Q16666) | -0.11 | -0.0451
11 | INPP5F_Q9Y2H2_725_DTLQCIAEMLQITK (UniProt Q9Y2H2) | 0.245 | 0.437
12 | INPP5D_Q92835_506_ISHICTDNVK (UniProt Q92835) | 0.0703 | 0.132
13 | ILVBL_A1L0T0_354_KADVIVLAGTVCDFR (UniProt A1L0T0) | 0.0545 | 0.141
14 | ILKAP_Q9H0C8_301_CGVTSVPDIR (UniProt Q9H0C8) | -0.0284 | -0.199
15 | INPP1_P49441_97_LCSTEEETAELLSK (UniProt P49441) | 0.0651 | -0.0128
16 | INO80E_Q8NBZ0_31_FLIYEHECFQEELRK (UniProt Q8NBZ0) | 0.169 | 0.0871
17 | IFI35_P80217_74_IHCPLLAGSALITFDDPK (UniProt P80217) | -0.0276 | -0.193
18 | IGF2R_P11717_823_YYINVCRPLNPVPGCNR (UniProt P11717) | -0.136 | -0.194
19 | ILK_Q13418_239_DFNEECPR (UniProt Q13418) | -0.027 | -0.159
20 | IGF2R_P11717_1839_TYSVGVCTFAVGPEQGGCK (UniProt P11717) | -0.00554 | 0.112
21 | INF2_Q27J81_971_QEEVCVIDALLADIRK (UniProt Q27J81) | -0.0792 | -0.266
22 | HUWE1_Q7Z6Z7_29_VCNDEQLLLELQQIK (UniProt Q7Z6Z7) | -0.145 | 0.108
23 | IGFBP4_P22692_174_EDARPVPQGSCQSELHR (UniProt P22692) | -0.291 | 0.00294
24 | IGF2R_P11717_1927_LWCSTTADYDRDHEWGFCR (UniProt P11717) | -0.112 | 0.217
25 | IGFBP4_P22692_215_QCHPALDGQR (UniProt P22692) | -0.796 | -0.804
26 | ILKAP_Q9H0C8_135_KGEREEMQDAHVILNDITEECRPPSSLITR (UniProt Q9H0C8) | -0.211 | -0.03

Reformatted: entries from further up.
Row,Target,probe-labelled cysteine peptide fold change (10 µM),probe-labelled cysteine peptide fold change (50 µM)
2,IGF2R_P11717_2096_TASSVIELTCTK (UniProt P11717),-0.0404,-0.124
3,HUWE1_Q7Z6Z7_4211_EYVHLVCQMR (UniProt Q7Z6Z7),-0.0536,0.0673
4,IKBKG_Q9Y6K9_95_EFLMCK (UniProt Q9Y6K9),-0.0371,-0.0967
5,IGF2R_P11717_228_ACPPGTAACLVR (UniProt P11717),-0.0106,0.104
6,IL18_Q14116_10_AAEPVEDNCINFVAMK (UniProt Q14116),0.222,0.39
7,ILKAP_Q9H0C8_135_EEMQDAHVILNDITEECRPPSSLITR (UniProt Q9H0C8),-0.29,0.284
